The test deals with T1, CD30 ligand (CD30L) on HMC1.2 mast cells (human (endogenous in HMC1.2)) (UniProt P32971).
T1 sequence: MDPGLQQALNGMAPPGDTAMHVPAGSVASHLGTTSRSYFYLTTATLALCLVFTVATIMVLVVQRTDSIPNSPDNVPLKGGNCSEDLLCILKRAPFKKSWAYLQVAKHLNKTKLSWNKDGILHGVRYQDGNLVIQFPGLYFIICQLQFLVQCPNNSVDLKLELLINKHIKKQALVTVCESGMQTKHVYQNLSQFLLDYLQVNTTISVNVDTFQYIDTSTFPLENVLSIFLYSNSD
Put plainly: flow cytometry on cells; HMC1.2 cells (5 x 10^5/mL) incubated for 1 h on ice with CD30Fc; target on cells.

Chains of the proteins cited; added tags and fusions are not shown. Residues count along the entry.
UniProt P28908, residues 19-385: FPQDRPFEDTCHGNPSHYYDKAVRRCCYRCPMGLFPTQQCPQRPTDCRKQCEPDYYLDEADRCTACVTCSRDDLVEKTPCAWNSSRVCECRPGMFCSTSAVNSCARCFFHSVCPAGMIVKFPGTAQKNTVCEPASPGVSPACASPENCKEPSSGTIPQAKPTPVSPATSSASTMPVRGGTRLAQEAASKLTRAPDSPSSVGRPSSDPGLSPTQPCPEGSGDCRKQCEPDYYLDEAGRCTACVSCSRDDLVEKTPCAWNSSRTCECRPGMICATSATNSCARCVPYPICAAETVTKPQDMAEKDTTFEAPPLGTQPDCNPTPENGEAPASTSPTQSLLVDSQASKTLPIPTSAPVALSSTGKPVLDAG

No constants are given. Whether binding was seen depends on the method and setting. Some binding calls cover weakened binding; strength is not graded here.

Consider “CD30Fc (from UniProt P28908 19-385) (Fc fusion)”, for which the binding entry is on record as “binds”.

The record behind these values is publication PMC5058698.
